Test results: PubChem BioAssay AID2685 (National Center for Advancing Translational Sciences (NCATS), 2010)
This is one part of the list. Further columns of the screen follow, without active or inactive calls. Most of these compounds were active or inconclusive in the main read-out, so they are no random draw. Potencies come from curve fits of mixed quality, noted in brackets.

Assay: qHTS Assay for Lipid Storage Modulators in Drosophila S3 Cells;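 as to cell number change: cells counted by Cell Tracker Red CMTPX staining in the red channel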
Conditions: BODIPY lipid droplet fluorescence, 18-24 h; for cell number change: measured here: cell count max response, cells fed with added oleic acid
Procedure, shortened: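 Drosophila S3 cells loaded with oleic acid (400 uM, as added) and compounds at several concentrations; lipid droplets imaged by 488-nm laser-scanning cytometry, 500–530 nm intensity and object ratio to cell channel. Percent activity normalized to 20 uM Triacsin C.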

[1] = measured here: cell number channel AC50, cells fed with added oleic acid
[2] = measured here: lipid fluorescence (Fed channel) AC50, cells fed with added oleic acid

Row | SMILES | cell number change [%] | AC50 [1] | AC50 [2]
1 | CC(=O)c1c(N2CCOCC2)nc2ccc(Cl)cc2c1-c1ccccc1 | 15.2 | 4.11 µM [rising, single point] | 
2 | Cc1cc(Br)ccc1NC(=O)CN1C(=O)CCC1=O | 7.13 |  | 
3 | CC1=C(C(=O)N2CCCC(C(=O)c3cccc(C(F)(F)F)c3)C2)OCCO1 (stereo not drawn) | -35.5 | 25.9 µM [falling, single point] | 18.4 µM [falling, single point]
4 | O=C(CN1CCN(CC(=O)Nc2ccccc2F)CC1)Nc1ccc2c(c1)OCCO2 | -29.6 |  | 29.1 µM [falling, single point]
5 | COC(=O)C1SCC2C(=O)N(Cc3ccc(Cl)cc3)CC(=O)N21 (stereo not drawn) | -47 | 23.1 µM [falling, single point] | 29.1 µM [falling, single point]
6 | CN(CC(=O)Nc1nc2ccccc2s1)S(=O)(=O)c1ccccc1 |  | 4.11 µM [rising, single point] | 
7 | COc1ccc(C(=O)NCCNC(=O)c2ccccn2)cc1 | 50 | 18.4 µM [rising, partial curve, poor fit] | 
8 | CNC(=S)N1CCN(c2nc(-c3ccc(F)cc3)cs2)CC1 | -32.9 | 20.6 µM [falling, single point] | 
9 | O=C(Nc1ccccc1C(=O)NCc1ccccc1)c1ccccc1 | -22 |  | 9.2 µM [falling, partial curve]
10 | CCOC(=O)Nc1ccc(S(=O)(=O)Nc2nccc(C)n2)cc1 | -5.7 | 6.51 µM [falling, partial curve] | 
11 | CCSc1nnc(N(CCC(=O)O)CCC(=O)O)s1 | -7.2 |  | 1.03 µM [falling, partial curve]
12 | O=S(=O)(NC1CCCCC1N1CCN(c2cccc(Cl)c2)CC1)c1ccccc1 (stereo not drawn) | 18.3 |  | 4.61 µM [rising, partial curve]
13 | Cn1cc([N+](=O)[O-])c(C(=O)Nc2cc(Oc3ccccc3)cc([N+](=O)[O-])c2)n1 | -0.853 |  | 29.1 µM [rising, single point]
14 | COC(=O)c1sccc1NC(=O)Nc1cccc(C(C)=O)c1 | -5.2 |  | 0.82 µM [falling, full curve, poor fit]
15 | CS(=O)(=O)c1ccc(Cl)c(NC(=O)COC(=O)CNC(=O)c2ccc3ccccc3c2)c1 | 9.8 | 6.51 µM [falling, single point] | 1.3 µM [falling, full curve]
16 | CC(=O)N1CCc2c(sc(NC(=O)C3CCN(S(=O)(=O)c4cccs4)CC3)c2C(N)=O)C1 | 28.9 |  | 
17 | COc1ccc(OCc2cc(C(=O)N3CCN(C4CCCC4)CC3)no2)c(Cl)c1 | -1.76 |  | 0.116 µM [falling, full curve, poor fit]
18 | COCCn1c(SCC(=O)N2CCCC2=O)nc2sc(C)c(C)c2c1=O | -22 |  | 
19 | CC(C(=O)N1CCN(C=O)CC1)N1C(=O)c2ccccc2C1=O (stereo not drawn) | -6.78 |  | 23.1 µM [rising, single point]
20 | Cc1ccccc1-c1nc(-c2ccc(Br)o2)no1 | 63.8 | 16.4 µM [rising, partial curve] | 23.1 µM [rising, partial curve]

Row | SMILES | cell number change [%] | AC50 [1] | AC50 [2]
21 | O=C(CCc1ccccc1)NCCSc1ccccc1 | 12.2 | 0.103 µM [falling, full curve, poor fit] | 0.092 µM [falling, full curve, poor fit]
22 | CN1C(=O)CSC1=Nc1ccc(Br)cc1 | 10.9 |  | 0.0651 µM [rising, full curve, poor fit]
23 | O=C(Nc1ccc(N2CCCC2)c(Cl)c1)c1cccc(-c2cc3ccccc3oc2=O)c1 | 4.81 |  | 18.4 µM [rising, partial curve]
24 | Cc1ccc(NC(=O)c2cc([N+](=O)[O-])ccc2N2CCOCC2)cc1C | -11.9 |  | 3.26 µM [rising, single point]
25 | COc1ccc(N2CCOCC2)c(NC(=O)c2ccc3c(c2)OCO3)c1 |  | 2.06 µM [falling, partial curve, poor fit] | 5.62 µM [rising, single point]
26 | CC(=O)Nc1ccc(S(=O)(=O)Nc2cccc(-c3ccc4nncn4n3)c2)cc1 |  |  | 0.82 µM [falling, full curve]
27 | COc1ccc(CC(=O)Oc2ccc(F)c(F)c2)cc1S(=O)(=O)N1CCOCC1 | -26.9 | 4.11 µM [falling, partial curve] | 
28 | CCc1nnc(NS(=O)(=O)c2ccc(NC(=O)c3ccc(Cl)cc3)cc2)s1 | 39.3 |  | 29.1 µM [rising, single point]
29 | CC1CCc2nc(NC(=O)C3CC3)sc2C1 (stereo not drawn) | 44.7 | 6.51 µM [rising, partial curve] | 1.3 µM [rising, partial curve]
30 | O=C1C(Cc2ccccc2)NC(=S)N1c1ccccc1 (stereo not drawn) | 4.87 | 0.058 µM [rising, full curve, poor fit] | 
31 | COc1ccc(S(=O)(=O)NC(CC(=O)NCc2ccc3c(c2)OCO3)c2ccco2)cc1 (stereo not drawn) | -7.24 |  | 4.61 µM [falling, full curve, poor fit]
32 | COc1ccc(-c2noc(Cc3ccc(Cl)cc3)n2)cc1OC | -11.3 |  | 
33 | CC1(C)N=c2ccc([N+](=O)[O-])c(N)c2=[N+]1[O-] | -27 |  | 
34 | O=C(NCCc1ccccc1)C(c1ccccc1)N(C(=O)c1csnn1)C1CC1 (stereo not drawn) | 18.7 |  | 29.1 µM [rising, single point]
35 | Clc1ccc(CSC2=NCCCN2)cc1Cl | 79.1 | 25.9 µM [rising, partial curve] | 0.651 µM [rising, single point]
36 | C=CCn1c(SCc2ccc(Cl)cc2)nc2c1c(=O)[nH]c(=O)n2C | 42.9 | 4.11 µM [rising, full curve] | 2.59 µM [rising, full curve, poor fit]
37 | COc1ccc(-c2cn3cc(Br)cnc3n2)cc1 | -11.7 |  | 0.731 µM [falling, single point]
38 | N/C(=N\OC(=O)CCCc1ccccc1)c1ccccn1 | -54.7 | 29.1 µM [falling, single point] | 0.00517 µM [rising, full curve, poor fit]
39 | O=C(Nc1ccccc1N1CCN(c2ccc(F)cc2)CC1)c1ccccc1 | -15.1 |  | 23.1 µM [rising, single point]
40 | Cc1ccc(C)n1-c1ccc(-c2ccn[nH]2)cc1 | 8.54 |  | 

Row | SMILES | cell number change [%] | AC50 [1] | AC50 [2]
41 | Cn1cccc1C(=O)NC(=O)COC(=O)CNS(=O)(=O)c1ccc(Br)cc1 | -10 |  | 
42 | CC(=O)Nc1ccc(C2=NNC(=Nc3cccc(S(=O)(=O)N(C)C)c3)SC2)cc1 | -12.1 | 3.66 µM [falling, single point] | 3.66 µM [falling, single point]
43 | COc1ccc(/C(O)=C2/C(=O)C(=O)N(CCCN(C)C)C2c2cccnc2)cc1 (stereo not drawn) | -7.42 |  | 0.00517 µM [falling, full curve, poor fit]
44 | COc1cccc(CNC(=O)C2CCCN(S(=O)(=O)c3cnc[nH]3)C2)c1 (stereo not drawn) | 8.29 |  | 0.517 µM [rising, single point]
45 | Cc1ccc(CN(C(=O)c2csnn2)C(C(=O)NC2CCCC2)c2ccco2)cc1 (stereo not drawn) | 12 |  | 0.58 µM [rising, single point]
46 | Fc1ccccc1-c1ccc(/C=N/Nc2nc3ccccc3[nH]2)o1 | 117 | 18.4 µM [rising, single point] | 29.1 µM [falling, single point]
47 | COc1ccc(CCNC(=O)c2cc(-c3cccs3)on2)cc1OC | -12 |  | 14.6 µM [rising, single point]
48 | O=C(COC(=O)c1ccc(S(=O)(=O)N2CCCC2)cc1)NCc1ccccc1 | 3.21 |  | 
49 | COc1ccc(Cn2c(=O)[nH]c3cc(C(=O)NCCCN4CCCCC4)ccc3c2=O)cc1 | 12.5 |  | 0.13 µM [rising, single point]
50 | CC(=O)Nc1ccc(NC(=O)CN2CCN(c3ccccn3)CC2)cc1 | 22.7 |  | 7.31 µM [rising, partial curve]
51 | COc1cccc(NC(=O)C2CCC(CNS(=O)(=O)c3ccc4c(c3)CC(C)N4C(C)=O)CC2)c1 (stereo not drawn) | -4.94 |  | 29.1 µM [falling, single point]
52 | COc1ccc(S(=O)(=O)N2CCOCC2)cc1C(=O)Nc1nc2ccccc2s1 | -69.4 | 20.6 µM [falling, partial curve] | 29.1 µM [falling, single point]
53 | Cc1cc(C)n2nc(CNS(=O)(=O)c3c(F)c(F)c(F)c(F)c3F)nc2n1 |  | 2.06 µM [falling, partial curve] | 4.11 µM [falling, partial curve]
54 | O=C(Cc1ccccc1)c1c[nH]c(C(=O)O)c1 | -38.6 | 0.184 µM [falling, partial curve, poor fit] | 
55 | Cc1ccc(S(=O)(=O)N[C@H](C(=O)N2CCC(C(=O)NCC(=O)O)CC2)C(C)C)cc1 | -33.2 | 4.61 µM [falling, full curve, poor fit] | 
56 | COc1cc(OC)cc(-c2c(C#Cc3ccsc3)c3cc(Br)ccc3n2C)c1 | 12.3 |  | 6.51 µM [falling, single point]
57 | Cc1ccc(/C(N)=N/OC(=O)c2ccc3ccccc3c2)cc1 |  |  | 1.3 µM [falling, partial curve, poor fit]
58 | CCOC(=O)C1C(=O)OC(C)(C)C1C(CC)C(=O)c1ccccc1 (stereo not drawn) | -18.5 | 0.00461 µM [falling, full curve, poor fit] | 0.00461 µM [falling, full curve, poor fit]

Single records, from the list above.
CC1(C)N=c2ccc([N+](=O)[O-])c(N)c2=[N+]1[O-] reads cell number change [%]: -27
COc1ccc(S(=O)(=O)N2CCOCC2)cc1C(=O)Nc1nc2ccccc2s1 reads cell number change [%]: -69.4; AC50 [1]: 20.6 µM [falling, partial curve]; AC50 [2]: 29.1 µM [falling, single point]
O=C(Cc1ccccc1)c1c[nH]c(C(=O)O)c1 reads cell number change [%]: -38.6; AC50 [1]: 0.184 µM [falling, partial curve, poor fit]
O=C(Nc1ccc(N2CCCC2)c(Cl)c1)c1cccc(-c2cc3ccccc3oc2=O)c1 reads cell number change [%]: 4.81; AC50 [2]: 18.4 µM [rising, partial curve]
